Experimental data as given in paper PMC5874067.
No constants are given. Whether binding was seen depends on the method and setting. Binding seen in cells or lysates may run through a third protein. Some binding calls cover weakened binding; strength is not graded here. Where a sequence is shown, tags or fusion partners need not be part of it. One block for each binder: values may come before it.

Key:
[1] = biological target: T1, EGFP-fused ARL6∆N15(Q73L) (UniProt Q9H0F7); test: co-IP; VIP assay: lysates of HEK293T cells co-expressing an EGFP-fused and an mChe- or tRFP-fused protein (HMDEKN buffer: 10 mM HEPES pH 7.4, 5 mM MgSO4, 1 mM DTT, 0.5 mM EDTA, 25 mM KCl, 0.5% NP-40); EGFP fusion precipitated with GST-anti-GFP nanobody on glutathione-Sepharose beads; beads read by fluorescence microscopy and, for some pairs, by immunoblotting
T1 sequence: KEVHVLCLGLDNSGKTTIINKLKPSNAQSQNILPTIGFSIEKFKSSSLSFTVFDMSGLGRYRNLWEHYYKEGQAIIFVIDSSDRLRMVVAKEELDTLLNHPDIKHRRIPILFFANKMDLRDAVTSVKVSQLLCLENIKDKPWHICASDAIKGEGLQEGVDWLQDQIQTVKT

[2] = biological target: T2, EGFP-BBS7 (human) (UniProt Q8IWZ6); test: as above
T2 sequence: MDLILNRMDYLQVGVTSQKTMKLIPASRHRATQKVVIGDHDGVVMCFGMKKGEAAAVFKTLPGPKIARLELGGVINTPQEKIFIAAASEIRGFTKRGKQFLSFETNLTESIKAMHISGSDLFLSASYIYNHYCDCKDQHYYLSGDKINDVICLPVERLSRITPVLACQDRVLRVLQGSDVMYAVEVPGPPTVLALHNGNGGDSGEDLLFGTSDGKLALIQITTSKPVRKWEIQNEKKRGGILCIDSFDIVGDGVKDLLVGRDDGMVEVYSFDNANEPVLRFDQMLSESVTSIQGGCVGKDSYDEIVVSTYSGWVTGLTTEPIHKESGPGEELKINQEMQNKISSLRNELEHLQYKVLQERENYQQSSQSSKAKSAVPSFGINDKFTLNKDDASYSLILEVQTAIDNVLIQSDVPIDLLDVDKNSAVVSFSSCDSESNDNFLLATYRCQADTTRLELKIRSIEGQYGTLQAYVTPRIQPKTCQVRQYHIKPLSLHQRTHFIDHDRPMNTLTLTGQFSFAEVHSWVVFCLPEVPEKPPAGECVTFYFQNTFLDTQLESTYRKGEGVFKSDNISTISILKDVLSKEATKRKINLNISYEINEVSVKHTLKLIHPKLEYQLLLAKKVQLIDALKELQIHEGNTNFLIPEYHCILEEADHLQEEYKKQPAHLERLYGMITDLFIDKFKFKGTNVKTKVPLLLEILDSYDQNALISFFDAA

binding [1]: no binding
B1: mChe-fused BBS18 (protein, UniProt A8MTZ0 1-92)
chain: MLKAAAKRPELSGKNTISNNSDMAEVKSMFREVLPKQGPLFVEDIMTMVLCKPKLLPLKSLTLEKLEKMHQAAQNTIRQQEMAEKDQRQITH

binding [1]: no binding
B2: mChe-fused BBS2 (protein, UniProt Q9BXC9 1-721)
chain: MLLPVFTLKLRHKISPRMVAIGRYDGTHPCLAAATQTGKVFIHNPHTRNQHVSASRVFQSPLESDVSLLSINQAVSCLTAGVLNPELGYDALLVGTQTNLLAYDVYNNSDLFYREVADGANAIVLGTLGDISSPLAIIGGNCALQGFNHEGSDLFWTVTGDNVNSLALCDFDGDGKKELLVGSEDFDIRVFKEDEIVAEMTETEIVTSLCPMYGSRFGYALSNGTVGVYDKTSRYWRIKSKNHAMSIHAFDLNSDGVNELITGWSNGKVDARSDRTGEVIFKDNFSSAIAGVVEGDYRMDGHIQLICCSVDGEIRGYLPGTAEMRGNLMDTSAEQDLIRELSQKKQNLLLELRNYEENAKAELASPLNEADGHRGIIPANTRLHTTLSVSLGNETQTAHTELRISTSNDTIIRAVLIFAEGIFTGESHVVHPSIHNLSSSICIPIVPPKDVPVDLHLKAFVGYRSSTQFHVFESTRQLPRFSMYALTSLDPASEPISYVNFTIAERAQRVVVWLGQNFLLPEDTHIQNAPFQVCFTSLRNGGHLHIKIKLSGEITINTDDIDLAGDIIQSMASFFAIEDLQVEADFPVYFEELRKVLVKVDEYHSVHQKLSADMADHSNLIRSLLVGAEDARLMRDMKTMKSRYMELYDLNRDLLNGYKIRCNNHTELLGNLKAVNQAIQRAGRLRVGKPKNQVITACRDAIRSNNINTLFKIMRVGTASS

binding [1]: no binding
B3: mChe-fused BBS8 (protein, UniProt Q8TAM2 1-541)
chain: MSSEMEPLLLAWSYFRRRKFQLCADLCTQMLEKSPYDQEPDPELPVHQAAWILKARALTEMVYIDEIDVDQEGIAEMMLDENAIAQVPRPGTSLKLPGTNQTGGPSQAVRPITQAGRPITGFLRPSTQSGRPGTMEQAIRTPRTAYTARPITSSSGRFVRLGTASMLTSPDGPFINLSRLNLTKYSQKPKLAKALFEYIFHHENDVKTIHLEDVVLHLGIYPFLLRNKNHIEKNALDLAALSTEHSQYKDWWWKVQIGKCYYRLGMYREAEKQFKSALKQQEMVDTFLYLAKVYVSLDQPVTALNLFKQGLDKFPGEVTLLCGIARIYEEMNNMSSAAEYYKEVLKQDNTHVEAIACIGSNHFYSDQPEIALRFYRRLLQMGIYNGQLFNNLGLCCFYAQQYDMTLTSFERALSLAENEEEAADVWYNLGHVAVGIGDTNLAHQCFRLALVNNNNHAEAYNNLAVLEMRKGHVEQARALLQTASSLAPHMYEPHFNFATISDKIGDLQRSYVAAQKSEAAFPDHVDTQHLIKQLRQHFAML

binding [1]: no binding
B4: mChe-fused BBS9 (protein, UniProt Q3SYG4 1-887)
chain: MSLFKARDWWSTILGDKEEFDQGCLCLANVDNSGNGQDKIIVGSFMGYLRIFSPHPAKTGDGAQAEDLLLEVDLRDPVLQVEVGKFVSGTEMLHLAVLHSRKLCVYSVSGTLGNVEHGNQCQMKLMYEHNLQRTACNMTYGSFGGVKGRDLICIQSMDGMLMVFEQESYAFGRFLPGFLLPGPLAYSSRTDSFLTVSSCQQVESYKYQVLAFATDADKRQETEQQKLGSGKRLVVDWTLNIGEQALDICIVSFNQSASSVFVLGERNFFCLKDNGQIRFMKKLDWSPSCFLPYCSVSEGTINTLIGNHNNMLHIYQDVTLKWATQLPHIPVAVRVGCLHDLKGVIVTLSDDGHLQCSYLGTDPSLFQAPNVQSRELNYDELDVEMKELQKIIKDVNKSQGVWPMTEREDDLNVSVVVSPNFDSVSQATDVEVGTDLVPSVTVKVTLQNRVILQKAKLSVYVQPPLELTCDQFTFEFMTPDLTRTVSFSVYLKRSYTPSELEGNAVVSYSRPTDRNPDGIPRVIQCKFRLPLKLICLPGQPSKTASHKITIDTNKSPVSLLSLFPGFASQSDDDQVNVMGFHFLGGARITVLASKTSQRYRIQSEQFEDLWLITNELILRLQEYFEKQGVKDFACSFSGSIPLQEYFELIDHHFELRINGEKLEELLSERAVQFRAIQRRLLARFKDKTPAPLQHLDTLLDGTYKQVIALADAVEENQGNLFQSFTRLKSATHLVILLIALWQKLSADQVAILEAAFLPLQEDTQELGWEETVDAAISHLLKTCLSKSSKEQALNLNSQLNIPKDTSQLKKHITLLCDRLSKGGRLCLSTDAAAPQTMVMPGGCTTIPESDLEERSVEQDSTELFTNHRHLTAETPRPEVSPLQGVSE

binding [1]: no binding
B5: mChe-fused BBS4 (protein, UniProt Q96RK4 1-519)
chain: MAEERVATRTQFPVSTESQKPRQKKAPEFPILEKQNWLIHLHYIRKDYEACKAVIKEQLQETQGLCEYAIYVQALIFRLEGNIQESLELFQTCAVLSPQSADNLKQVARSLFLLGKHKAAIEVYNEAAKLNQKDWEISHNLGVCYIYLKQFNKAQDQLHNALNLNRHDLTYIMLGKIHLLEGDLDKAIEVYKKAVEFSPENTELLTTLGLLYLQLGIYQKAFEHLGNALTYDPTNYKAILAAGSMMQTHGDFDVALTKYRVVACAVPESPPLWNNIGMCFFGKKKYVAAISCLKRANYLAPFDWKILYNLGLVHLTMQQYASAFHFLSAAINFQPKMGELYMLLAVALTNLEDIENAKRAYAEAVHLDKCNPLVNLNYAVLLYNQGEKKNALAQYQEMEKKVSLLKDNSSLEFDSEMVEMAQKLGAALQVGEALVWTKPVKDPKSKHQTTSTSKPASFQQPLGSNQALGQAMSSAAAYRTLPSGAGGTSQFTKPPSLPLEPEPAVESSPTETSEQIREK

binding [1]: no binding
B6: mChe-fused BBS7 (protein, UniProt Q8IWZ6 1-715)
chain: T2 sequence

binding [1]: no binding
B7: mChe-fused BBS5 (protein, UniProt Q8N3I7 1-341)
chain: MSVLDALWEDRDVRFDLSAQQMKTRPGEVLIDCLDSIEDTKGNNGDRGRLLVTNLRILWHSLALSRVNVSVGYNCILNITTRTANSKLRGQTEALYILTKCNSTRFEFIFTNLVPGSPRLFTSVMAVHRAYETSKMYRDFKLRSALIQNKQLRLLPQEHVYDKINGVWNLSSDQGNLGTFFITNVRIVWHANMNDSFNVSIPYLQIRSIKIRDSKFGLALVIESSQQSGGYVLGFKIDPVEKLQESVKEINSLHKVYSASPIFGVDYEMEEKPQPLEALTVEQIQDDVEIDSDGHTDAFVAYFADGNKQQDREPVFSEELGLAIEKLKDGFTLQGLWEVMS

binding [2]: binds
binding [1]: binds
B8: tRFP-fused BBS1(WT) (protein, UniProt Q8NFJ9 1-593)
chain: MAAASSSDSDACGAESNEANSKWLDAHYDPMANIHTFSACLALADLHGDGEYKLVVGDLGPGGQQPRLKVLKGPLVMTESPLPALPAAAATFLMEQHEPRTPALALASGPCVYVYKNLRPYFKFSLPQLPPNPLEQDLWNQAKEDRIDPLTLKEMLESIRETAEEPLSIQSLRFLQLELSEMEAFVNQHKSNSIKRQTVITTMTTLKKNLADEDAVSCLVLGTENKELLVLDPEAFTILAKMSLPSVPVFLEVSGQFDVEFRLAAACRNGNIYILRRDSKHPKYCIELSAQPVGLIRVHKVLVVGSTQDSLHGFTHKGKKLWTVQMPAAILTMNLLEQHSRGLQAVMAGLANGEVRIYRDKALLNVIHTPDAVTSLCFGRYGREDNTLIMTTRGGGLIIKILKRTAVFVEGGSEVGPPPAQAMKLNVPRKTRLYVDQTLREREAGTAMHRAFQTDLYLLRLRAARAYLQALESSLSPLSTTAREPLKLHAVVQGLGPTFKLTLHLQNTSTTRPVLGLLVCFLYNEALYSLPRAFFKVPLLVPGLNYPLETFVESLSNKGISDIIKVLVLREGQSAPLLSAHVNMPGSEGLAAA
